# In PubChem BioAssay AID2685 (National Center for Advancing Translational Sciences (NCATS), 2010):
# Some of the results follow. The main result of the screen is listed elsewhere. These columns were measured beside it and carry no call. Compounds called inactive in the main read-out are mostly missing here. Words in brackets tell the shape of the fitted curve; partial curves, single points and poor fits give uncertain potencies.
# Test: qHTS Assay for Lipid Storage Modulators in Drosophila S3 Cells;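 as to cell number change: cells counted by Cell Tracker Red CMTPX staining in the red channel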
# Details: BODIPY lipid droplet fluorescence, 18-24 h; for cell number change: measured here: cell count max response, cells fed with added oleic acid
# Method in brief: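 Drosophila S3 cells loaded with oleic acid (400 uM, as added) and compounds at several concentrations; lipid droplets imaged by 488-nm laser-scanning cytometry, 500–530 nm intensity and object ratio to cell channel. Percent activity normalized to 20 uM Triacsin C.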
# [1] = measured here: cell number channel AC50, cells fed with added oleic acid
# [2] = measured here: lipid fluorescence (Fed channel) AC50, cells fed with added oleic acid
SMILES,cell number change,AC50 [1],AC50 [2]
O=C(c1ccco1)N1CCN(C(=O)c2ccc(COc3ccc(F)cc3)o2)CC1,-20.4%,"3.66 µM [falling, full curve, poor fit]","4.11 µM [falling, full curve, poor fit]"
CC(C)C(NS(=O)(=O)c1cccc(C(F)(F)F)c1)C(=O)N1CCc2ccccc2C1 (centres undefined),18.4%,,
CCc1cc2c(CN(C)Cc3ccccc3F)cc(=O)oc2cc1O,19.4%,,"0.291 µM [rising, partial curve, poor fit]"
CCOCCCNC(=O)c1cn(C)c2ccc(S(=O)(=O)N3CCCCC3)cc2c1=O,-23.9%,"0.0411 µM [falling, full curve, poor fit]","2.06 µM [rising, partial curve]"
O=C(CCc1nc(-c2ccccc2)c(-c2ccccc2)o1)OCc1ccc(Br)cc1,7.75%,,
Cc1ccc(OCCOCCN2CCN(C)CC2)c(C(C)(C)C)c1,-3.57%,,"6.51 µM [rising, single point]"
COc1cccc(CN2CC(C(=O)NCCCc3ccc(C)cc3)CCC2=O)c1 (centres undefined),-15.3%,,
Cc1c(NC(=O)CCN2C(=O)c3ccccc3C2=O)c(=O)n(-c2ccccc2)n1C,-19.3%,,
Cc1ccc(/C=C2/Sc3ccc(C(=O)N4CCN(C)CC4)cc3NC2=O)cc1,,,"23.1 µM [rising, single point]"
O=[N+]([O-])c1ccc(Sc2cccc3cccnc23)cc1,,"4.11 µM [rising, single point]",
COC(=O)c1ccsc1NC(=O)CN1CCN(c2ccc(F)cc2)CC1,21.4%,,"10.3 µM [rising, partial curve]"
CC(OC(=O)C1=COCCO1)C(=O)Nc1cc(S(=O)(=O)N2CCCCC2)ccc1Cl (centres undefined),-13.2%,,"4.11 µM [falling, single point]"
COc1ccc(CCC(=O)Nc2sc(C(=O)N(C)C)c(C)c2C#N)cc1,-7.18%,,"6.51 µM [rising, single point]"
COc1cc2ccccc2cc1C(=O)NC(=S)Nc1ccc(C(=O)O)cc1,,,"20.6 µM [falling, partial curve]"
CC(=O)C12C3C4C(C5C1C3C5(Br)C41OCCO1)C21OCCO1 (centres undefined),-39.4%,"1.84 µM [falling, partial curve, poor fit]","23.1 µM [falling, single point]"
O=C(NCc1nc(-c2ccccc2)no1)c1ccc2c(c1)OCO2,-1.59%,,"6.51 µM [rising, single point]"
Cc1ccc(S(=O)(=O)N2CCN(C(=O)Cn3cnc4c3c(=O)n(C)c(=O)n4C)CC2)cc1C,3.88%,,
CN1C(=O)C2(C(C#N)=C(N)Oc3n[nH]c(-c4ccc(Cl)cc4)c32)c2ccccc21 (centres undefined),3.74%,,"1.46 µM [rising, partial curve, poor fit]"
CCCCN(C(=O)CSc1nnc(-c2ccc(OC)cc2)n1C(C)C)c1c(N)n(Cc2ccccc2)c(=O)[nH]c1=O,-34.3%,,"13 µM [falling, partial curve, poor fit]"
CCc1ccc(C(=O)NNC(=O)CN2C(=O)NC3(CCCC3)C2=O)cc1,-0.688%,,"20.6 µM [rising, partial curve]"

SMILES,cell number change,AC50 [1],AC50 [2]
CN1C(C(=O)Nc2cccc(O)c2)=CC(c2ccco2)=NS1(=O)=O,6.63%,"0.103 µM [rising, full curve, poor fit]","0.0731 µM [rising, full curve, poor fit]"
CC(C)CNc1cc(=O)n(C)c(=O)n1C,2.19%,,"0.146 µM [falling, partial curve, poor fit]"
COc1cc(C)c(C(=O)CSc2nnc(CNC(=O)c3ccco3)n2C)cc1C,,,"20.6 µM [rising, partial curve]"
Cc1cccc2cc(CN(Cc3cccnc3)C(=O)c3cccs3)c3nnnn3c12,-6.05%,,"3.26 µM [rising, full curve, poor fit]"
O=C(COc1cccc(Cl)c1)NCC(c1cccs1)N1CCOCC1 (centres undefined),37%,,
O=C(CN1CCN(S(=O)(=O)c2ccccc2)CC1)N1CCc2ccccc21,21%,,"3.26 µM [rising, partial curve]"
O=C(Nc1ccccc1C(=O)N1CCOCC1)C1COc2ccccc2O1 (centres undefined),8.05%,,"6.51 µM [falling, single point]"
Cc1ccccc1Cn1c(=O)n(CCCC(=O)NCc2ccco2)c(=O)c2sccc21,149%,"20.6 µM [rising, single point]","25.9 µM [rising, single point]"
COc1ccc(C(=O)n2c(SC)nc3cc4c(cc32)OCCO4)cc1,-17%,,
Cn1c(N)c(C(=O)COC(=O)C2CC(O)CN2S(=O)(=O)c2ccc(Cl)cc2)c(=O)n(C)c1=O (centres undefined),-0.245%,,
CCOc1cccc(NC(=O)/C(C#N)=C\c2cccnc2)c1,-6.47%,,
CC(=O)Nc1ccc(NC(=O)c2c(C)nn(Cc3ccccc3)c2Cl)cc1,4.96%,,"29.1 µM [rising, partial curve, poor fit]"
CC1(c2ccccn2)Nc2ccccc2-c2nc3ccccc3n21 (centres undefined),-13.4%,,
Cc1cc2c(ccc3c2no[n+]3[O-])nn1,-15.5%,,
C=CCNC(=S)Nc1ccc(N2CCOCC2)c(S(=O)(=O)Nc2ccccc2Cl)c1,,"0.82 µM [rising, partial curve]",
COc1ccc(-c2cc(C(=O)N3CCN(c4ccccc4)CC3)no2)cc1,7.21%,,"0.651 µM [rising, full curve]"
COC(=O)c1c(C)oc(C)c1S(=O)(=O)NCc1ccc(OC)cc1,9.1%,,"0.13 µM [falling, full curve, poor fit]"
CC(C)Oc1ccc(C(CC(=O)O)NC(=O)CSc2ncn[nH]2)cc1 (centres undefined),3.45%,,
Cc1ccc(OCCn2cc(/C(N)=N/O)c3ccccc32)cc1C,-54.8%,"29.1 µM [falling, single point]",
O=C(COc1ccc2ccccc2c1)Nc1ccc(Cc2ccncc2)cc1,-65.2%,"23.1 µM [falling, single point]","25.9 µM [falling, partial curve]"

# 3 entries from above, with bars between the fields:
SMILES | cell number change | AC50 [1] | AC50 [2]
Cc1ccc(OCCOCCN2CCN(C)CC2)c(C(C)(C)C)c1 | -3.57% |  | 6.51 µM [rising, single point]
Cc1ccc(/C=C2/Sc3ccc(C(=O)N4CCN(C)CC4)cc3NC2=O)cc1 |  |  | 23.1 µM [rising, single point]
CN1C(=O)C2(C(C#N)=C(N)Oc3n[nH]c(-c4ccc(Cl)cc4)c32)c2ccccc21 (centres undefined) | 3.74% |  | 1.46 µM [rising, partial curve, poor fit]

# Next results follow:

SMILES,cell number change,AC50 [1],AC50 [2]
Cc1ccc(S(=O)(=O)/N=C(/c2ccc(F)cc2)N2CCCC2)cc1,,,"0.00461 µM [falling, full curve, poor fit]"
Cc1nc2ccc(NC(=O)c3ccc(S(=O)(=O)N(C)c4ccccc4)cc3)cc2s1,233%,"18.4 µM [rising, single point]","6.51 µM [rising, single point]"
NC(=O)c1ccsc1NC(=O)CN1C(=O)C2CC=CCC2C1=O (centres undefined),16.7%,,"2.31 µM [rising, single point]"
COc1cc(C(=O)ON=C2C=C(C)C(=O)C(C)=C2)cc(OC)c1OC,,"6.51 µM [rising, single point]","0.00651 µM [falling, full curve, poor fit]"
CCOC(=O)c1c(NC(=O)CSc2nnnn2-c2ccccc2)sc2c1CCC(C)C2 (centres undefined),46.4%,"29.1 µM [rising, single point]",
CCc1ccc(NC(=O)CCNC(=O)Cn2ccc3ccccc3c2=O)cc1,124%,"20.6 µM [rising, partial curve]","29.1 µM [rising, single point]"
Cc1ccc(NC(=O)c2ccc(OCc3c(C)noc3C)cc2)cc1,-23.6%,,"0.13 µM [falling, full curve, poor fit]"
C/C(=N\NC(=O)c1ccccc1[N+](=O)[O-])c1c(O)cc(C)oc1=O,,"3.66 µM [rising, single point]","29.1 µM [falling, single point]"
COc1ccccc1CNC(=O)COC(=O)c1ccc(C)s1,,,"29.1 µM [falling, single point]"
O=S(=O)(Nc1ccc(O)c(NS(=O)(=O)c2ccccc2)c1)c1ccccc1,7.33%,,
Cc1ccccc1NC(=O)Cn1cc(C(=O)C2CC2)c2ccccc21,18.1%,,"0.82 µM [rising, single point]"
CC(=O)c1cn(Cc2ccccc2)c(=O)n(Cc2ccc(F)cc2)c1=O,52.1%,"7.31 µM [rising, full curve, poor fit]",
CCn1nc(C(=O)NNC(=O)CCOc2cc(C)ccc2C)c2ccccc2c1=O,11.3%,,"7.08 µM [rising, full curve, poor fit]"
CC(=O)c1c(C)[nH]c(C(=O)CSc2nnc3ccccn23)c1C,22.8%,"4.11 µM [rising, single point]","29.1 µM [rising, single point]"
CCOC(=O)CNC(=O)c1sc2nc(C)cc(C)c2c1N,-19.5%,"0.164 µM [falling, partial curve, poor fit]","6.51 µM [falling, single point]"
CCCCNC(=S)N/N=C1\C(=O)c2cccc3cccc1c23,,"0.82 µM [rising, partial curve]","0.82 µM [rising, partial curve]"
CC(C)CC(=O)Nc1ccc(F)c(Cl)c1,-0.0328%,,"0.184 µM [falling, full curve, poor fit]"
Cc1ccnc(NC(=O)Cc2ccc(-c3ccccc3)cc2)c1,16.9%,,
CCOC(=O)COc1ccc2ccccc2c1/C=C/[N+](=O)[O-],-32%,"7.31 µM [falling, partial curve, poor fit]","6.51 µM [falling, partial curve]"
COCCN(Cc1nc2ccccc2c(=O)[nH]1)C(=O)COc1cccc(C(C)=O)c1,19.7%,,
